Measured values from article PMC4931318.
No constants are given. Whether binding was seen depends on the method and setting. In cells and extracts the contact can be indirect. Some results given as binding are weak or reduced against the parent protein; the word gives no strength. Tags and fused reporters may be left off the sequences shown. Values belong to the molecule of their own block, whether it stands above or below them.

Sequences of proteins named here, by UniProt entry; tags and fusion partners are left off. Residues count along the entry.
UniProt P28799, residues 18-593: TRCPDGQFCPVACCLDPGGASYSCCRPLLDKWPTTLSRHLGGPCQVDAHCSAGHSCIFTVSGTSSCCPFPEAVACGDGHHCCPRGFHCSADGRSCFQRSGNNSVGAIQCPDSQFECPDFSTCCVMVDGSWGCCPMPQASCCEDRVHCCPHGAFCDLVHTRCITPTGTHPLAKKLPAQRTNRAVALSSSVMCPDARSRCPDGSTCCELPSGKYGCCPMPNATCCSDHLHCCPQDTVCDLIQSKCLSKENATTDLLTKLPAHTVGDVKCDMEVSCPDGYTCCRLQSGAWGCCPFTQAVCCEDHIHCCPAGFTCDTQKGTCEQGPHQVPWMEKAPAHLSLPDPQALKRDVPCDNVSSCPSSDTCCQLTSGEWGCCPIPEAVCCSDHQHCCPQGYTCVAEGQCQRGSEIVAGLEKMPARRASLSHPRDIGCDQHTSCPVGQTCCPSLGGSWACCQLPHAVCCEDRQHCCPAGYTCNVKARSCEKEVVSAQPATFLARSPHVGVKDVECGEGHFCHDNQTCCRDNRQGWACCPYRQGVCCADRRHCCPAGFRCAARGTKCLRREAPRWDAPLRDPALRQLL

How the values were obtained:
Assay in all cases: co-IP; serum-free conditioned medium of co-transfected HeLa cells, concentrated (50 kDa cutoff), IP with anti-V5 antibody or mouse IgG control on Protein G Dynabeads, immunoblot
[1] = biological target: T1, V5-tagged wild-type PSAP (prosaposin) (human) (UniProt P07602)
T1 sequence: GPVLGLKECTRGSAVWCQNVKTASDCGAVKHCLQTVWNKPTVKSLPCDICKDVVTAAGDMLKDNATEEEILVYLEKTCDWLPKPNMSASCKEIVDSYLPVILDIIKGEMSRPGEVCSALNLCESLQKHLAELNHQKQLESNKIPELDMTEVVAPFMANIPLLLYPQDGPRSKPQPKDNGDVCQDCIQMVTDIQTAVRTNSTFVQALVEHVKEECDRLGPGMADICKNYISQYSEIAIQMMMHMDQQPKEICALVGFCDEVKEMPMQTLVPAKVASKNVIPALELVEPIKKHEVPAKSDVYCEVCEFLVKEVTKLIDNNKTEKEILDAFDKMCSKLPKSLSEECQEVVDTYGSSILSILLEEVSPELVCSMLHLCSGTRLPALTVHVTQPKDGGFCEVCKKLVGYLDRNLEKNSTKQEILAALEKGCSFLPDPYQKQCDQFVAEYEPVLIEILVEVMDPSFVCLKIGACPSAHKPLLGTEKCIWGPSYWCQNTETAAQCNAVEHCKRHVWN

[2] = biological target: T2, V5-tagged C-terminal deletion (ΔCter) PSAP (human) (UniProt P07602)
T2 sequence: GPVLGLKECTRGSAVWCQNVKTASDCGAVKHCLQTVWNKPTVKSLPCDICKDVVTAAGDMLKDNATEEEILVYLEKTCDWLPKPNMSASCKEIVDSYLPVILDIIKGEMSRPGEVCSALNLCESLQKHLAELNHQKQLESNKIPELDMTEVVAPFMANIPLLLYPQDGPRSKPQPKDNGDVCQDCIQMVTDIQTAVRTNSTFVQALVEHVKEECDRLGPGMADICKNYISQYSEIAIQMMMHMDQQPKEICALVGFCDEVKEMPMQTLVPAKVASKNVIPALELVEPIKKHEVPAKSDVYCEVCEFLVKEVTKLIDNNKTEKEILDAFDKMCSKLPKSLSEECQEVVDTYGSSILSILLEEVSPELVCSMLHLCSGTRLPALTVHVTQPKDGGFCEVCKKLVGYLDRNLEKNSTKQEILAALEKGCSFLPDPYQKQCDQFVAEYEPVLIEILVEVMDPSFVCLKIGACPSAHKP

[3] = biological target: V5-tagged PGRN (progranulin) (human) (UniProt P28799)

binding [1]: binds
binding [2]: binds
Molecule: untagged PGRN (progranulin), transfected (from UniProt P28799 18-593)

binding [3]: binds
B1: untagged C-terminal deletion (ΔCter) PSAP (domain or fragment, UniProt P07602-2 17-490)
chain: T2 sequence

binding [3]: binds
B2: untagged wild-type PSAP (prosaposin) (protein, UniProt P07602-2 17-526)
chain: T1 sequence
